The match of structure and compound is tentative.
Target: Human complement C1s enzyme (Homo sapiens, UniProt P09871)
Assay: Human C1s Enzyme Assay
Conditions: read-out: C1s Protease Activity; Table 3; C1s purified from human serum, 1.16 nM; substrate Z-L-Lys-SBzl
Procedure: Example 4. Human C1s Enzyme Assay
Human complement C1s enzyme (purified from human serum, Complement Technology, Inc.) at 1.16 nM final concentration is incubated with test compound at various concentrations for 5 min at room temperature in 50 mM Tris, 1 M NaCl, pH 7.5. A synthetic substrate Z-L-Lys-SBzl and DTNB (Ellman's reagent) are added to final concentrations of 100 μM each. Absorbance at 405 nm (A405) is recorded at 30 second intervals for 30 min using a microplate spectrophotometer. IC50 values are calculated by nonlinear regression of complement C1s reaction rates as a function of test compound concentration.

Protein sequences, listed by entry. Tags and fused reporters are not part of them. Residues count along the entry.
UniProt P09871, 438-688 limits assumed: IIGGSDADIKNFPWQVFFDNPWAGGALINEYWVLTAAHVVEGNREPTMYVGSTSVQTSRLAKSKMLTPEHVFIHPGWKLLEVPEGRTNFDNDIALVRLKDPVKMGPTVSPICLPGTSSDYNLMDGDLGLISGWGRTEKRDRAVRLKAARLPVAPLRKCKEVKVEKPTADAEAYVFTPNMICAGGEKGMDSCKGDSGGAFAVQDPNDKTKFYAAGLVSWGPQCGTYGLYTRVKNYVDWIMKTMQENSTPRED
UniProt P09871, 16-437 partner limits assumed: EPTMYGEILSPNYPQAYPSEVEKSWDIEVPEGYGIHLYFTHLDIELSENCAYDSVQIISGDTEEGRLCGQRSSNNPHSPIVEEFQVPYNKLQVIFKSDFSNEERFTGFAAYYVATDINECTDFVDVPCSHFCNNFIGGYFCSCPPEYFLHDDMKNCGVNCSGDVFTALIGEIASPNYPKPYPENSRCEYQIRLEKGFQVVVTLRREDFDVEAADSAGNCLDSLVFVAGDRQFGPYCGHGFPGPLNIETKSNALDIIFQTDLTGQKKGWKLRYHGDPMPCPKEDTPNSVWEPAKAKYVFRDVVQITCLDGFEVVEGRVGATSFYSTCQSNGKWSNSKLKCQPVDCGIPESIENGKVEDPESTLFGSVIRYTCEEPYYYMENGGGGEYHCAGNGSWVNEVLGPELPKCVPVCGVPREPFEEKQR

N=C(N)c1csc(CNC(=O)[C@@H]2[C@@H]3CC[C@@H](C3)N2C(=O)CNC(=O)c2ccc(Oc3ccccc3)cc2)c1
IC50: < 100 nM

From patent US12479856B2, “Pharmaceutical compounds for the treatment of complement mediated disorders” (Achillion Pharmaceuticals, Inc., priority 2019, dated 2025)
